This passage reports binding results from publication doi:10.1101/281196.

Chains of the proteins cited; added tags and fusions are not shown. Residues count along the entry.
UniProt Q13443, residues 29-819: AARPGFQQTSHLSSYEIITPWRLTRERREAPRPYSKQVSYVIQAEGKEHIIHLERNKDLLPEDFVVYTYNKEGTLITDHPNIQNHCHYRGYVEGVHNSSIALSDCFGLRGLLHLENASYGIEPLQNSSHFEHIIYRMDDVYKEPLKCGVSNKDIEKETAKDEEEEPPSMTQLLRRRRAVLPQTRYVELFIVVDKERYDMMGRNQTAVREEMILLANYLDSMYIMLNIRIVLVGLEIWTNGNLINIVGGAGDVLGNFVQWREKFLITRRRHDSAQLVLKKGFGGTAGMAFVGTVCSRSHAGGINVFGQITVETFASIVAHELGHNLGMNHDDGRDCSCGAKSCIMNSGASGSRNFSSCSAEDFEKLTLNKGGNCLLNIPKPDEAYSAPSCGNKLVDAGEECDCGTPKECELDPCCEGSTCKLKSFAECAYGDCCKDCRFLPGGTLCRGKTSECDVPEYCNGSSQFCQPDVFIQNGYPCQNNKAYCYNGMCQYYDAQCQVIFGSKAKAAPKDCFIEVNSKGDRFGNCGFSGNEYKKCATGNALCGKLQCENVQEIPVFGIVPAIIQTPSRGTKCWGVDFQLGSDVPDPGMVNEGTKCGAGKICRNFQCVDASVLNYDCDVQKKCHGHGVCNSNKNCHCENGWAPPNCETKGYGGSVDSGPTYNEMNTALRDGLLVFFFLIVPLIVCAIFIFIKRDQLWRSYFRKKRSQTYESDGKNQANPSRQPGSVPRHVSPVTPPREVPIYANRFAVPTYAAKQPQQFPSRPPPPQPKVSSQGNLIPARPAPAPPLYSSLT
UniProt Q14676: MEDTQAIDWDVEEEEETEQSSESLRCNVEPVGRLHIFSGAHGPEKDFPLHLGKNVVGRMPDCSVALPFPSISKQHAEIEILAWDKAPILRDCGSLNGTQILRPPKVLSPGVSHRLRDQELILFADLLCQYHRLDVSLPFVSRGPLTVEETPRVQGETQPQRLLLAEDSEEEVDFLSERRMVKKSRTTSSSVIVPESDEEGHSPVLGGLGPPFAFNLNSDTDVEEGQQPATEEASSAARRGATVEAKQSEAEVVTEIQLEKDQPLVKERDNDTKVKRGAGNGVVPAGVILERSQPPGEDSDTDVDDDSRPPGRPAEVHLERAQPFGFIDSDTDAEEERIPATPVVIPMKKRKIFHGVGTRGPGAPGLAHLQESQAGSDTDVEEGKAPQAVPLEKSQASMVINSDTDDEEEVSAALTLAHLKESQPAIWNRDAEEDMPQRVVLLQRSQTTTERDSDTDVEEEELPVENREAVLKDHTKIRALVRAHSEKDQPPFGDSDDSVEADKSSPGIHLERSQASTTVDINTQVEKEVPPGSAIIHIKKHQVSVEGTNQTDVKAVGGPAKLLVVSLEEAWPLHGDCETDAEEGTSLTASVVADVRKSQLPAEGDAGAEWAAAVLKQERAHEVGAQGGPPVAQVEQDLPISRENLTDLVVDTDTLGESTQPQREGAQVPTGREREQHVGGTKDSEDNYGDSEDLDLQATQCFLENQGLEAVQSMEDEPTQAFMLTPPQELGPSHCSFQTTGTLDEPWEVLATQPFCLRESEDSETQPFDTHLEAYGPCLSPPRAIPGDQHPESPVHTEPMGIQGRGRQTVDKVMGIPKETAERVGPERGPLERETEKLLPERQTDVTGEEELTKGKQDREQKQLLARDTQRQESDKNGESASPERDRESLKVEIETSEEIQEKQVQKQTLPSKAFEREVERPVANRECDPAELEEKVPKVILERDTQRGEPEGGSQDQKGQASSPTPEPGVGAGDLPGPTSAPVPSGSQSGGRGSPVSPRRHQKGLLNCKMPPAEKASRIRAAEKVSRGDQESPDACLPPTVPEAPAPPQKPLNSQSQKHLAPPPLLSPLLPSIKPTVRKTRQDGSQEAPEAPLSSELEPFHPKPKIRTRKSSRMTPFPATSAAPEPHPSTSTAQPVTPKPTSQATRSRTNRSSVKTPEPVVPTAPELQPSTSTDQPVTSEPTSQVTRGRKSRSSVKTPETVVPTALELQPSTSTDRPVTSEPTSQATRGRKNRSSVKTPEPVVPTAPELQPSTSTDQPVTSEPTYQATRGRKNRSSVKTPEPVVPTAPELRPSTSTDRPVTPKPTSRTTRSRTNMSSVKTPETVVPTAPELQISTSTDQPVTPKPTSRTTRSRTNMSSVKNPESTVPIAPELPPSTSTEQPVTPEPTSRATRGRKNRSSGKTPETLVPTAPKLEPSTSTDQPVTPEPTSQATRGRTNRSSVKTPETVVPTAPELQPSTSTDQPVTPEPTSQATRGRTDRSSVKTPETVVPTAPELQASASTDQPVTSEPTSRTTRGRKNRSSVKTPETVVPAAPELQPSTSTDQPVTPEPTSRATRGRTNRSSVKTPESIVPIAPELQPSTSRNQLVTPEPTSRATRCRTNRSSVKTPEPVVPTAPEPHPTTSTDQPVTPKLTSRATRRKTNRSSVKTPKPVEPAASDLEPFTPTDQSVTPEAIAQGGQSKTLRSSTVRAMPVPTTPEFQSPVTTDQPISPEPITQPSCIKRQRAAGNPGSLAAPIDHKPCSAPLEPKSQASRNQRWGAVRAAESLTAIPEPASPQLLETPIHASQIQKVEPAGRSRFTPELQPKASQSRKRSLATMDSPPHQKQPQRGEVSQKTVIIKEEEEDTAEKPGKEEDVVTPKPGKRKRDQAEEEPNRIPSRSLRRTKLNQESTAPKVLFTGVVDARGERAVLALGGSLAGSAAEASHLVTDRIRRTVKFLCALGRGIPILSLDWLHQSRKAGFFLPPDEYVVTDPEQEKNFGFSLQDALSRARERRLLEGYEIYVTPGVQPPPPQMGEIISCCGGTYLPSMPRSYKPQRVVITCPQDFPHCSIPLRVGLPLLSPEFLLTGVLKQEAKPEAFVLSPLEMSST
UniProt Q07955: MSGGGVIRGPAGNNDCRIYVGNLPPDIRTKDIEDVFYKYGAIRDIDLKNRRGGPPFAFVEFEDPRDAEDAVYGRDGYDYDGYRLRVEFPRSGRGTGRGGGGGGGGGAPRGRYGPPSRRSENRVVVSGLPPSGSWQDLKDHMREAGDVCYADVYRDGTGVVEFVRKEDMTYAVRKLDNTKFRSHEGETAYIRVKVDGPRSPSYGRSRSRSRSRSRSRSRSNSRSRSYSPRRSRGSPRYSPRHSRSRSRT

Assay [1] has as its target T1, Inhibitor of Differentiation 4 (ID4) (human (endogenous in HCC70, MDA-MB-468, HCC1954, OVKATE and PDX tumours)) (UniProt P47928).
T1 sequence: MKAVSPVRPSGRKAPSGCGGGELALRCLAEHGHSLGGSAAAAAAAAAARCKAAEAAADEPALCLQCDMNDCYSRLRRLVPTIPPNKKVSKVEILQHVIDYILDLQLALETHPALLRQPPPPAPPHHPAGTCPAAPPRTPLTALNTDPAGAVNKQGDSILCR
The assay can be described thus: affinity purification with mass spectrometry.

In assay [2] the target is T1, Inhibitor of Differentiation 4 (ID4) (human (endogenous in HCC70, MDA-MB-468, HCC1954, OVKATE and PDX tumours)). The assay can be described thus: affinity purification with mass spectrometry. The source holds these as a separate data set.

Read-outs that look alike come from different tables or passages of the source. Results are given in words; binding and its absence hold for the method and conditions named. In cells and extracts the contact can be indirect. These calls come from enrichment with a bait or labelling near it, and not all partners need be listed. For part of these data: A no says only that the protein was not detected with the bait. For part of these data: Tags and fused reporters may be left off the sequences shown.

For “disintegrin and metalloprotease domain 9 protein (ADAM9) (from UniProt Q13443 29-819)”, the binding entry in assay [1] is given as “binds”.
With “mediator of DNA damage checkpoint protein 1 (MDC1) (from UniProt Q14676 1-2089)”, the binding result in assay [2] and in assay [1] was “binds” each time.
With SRSF1 (from UniProt Q07955 1-248), the binding entry in assay [1] was “no binding”.

B1: Histidine Rich Glycoprotein (HRG) (protein, UniProt P04196 19-525)
chain: VSPTDCSAVEPEAEKALDLINKRRRDGYLFQLLRIADAHLDRVENTTVYYLVLDVQESDCSVLSRKYWNDCEPPDSRRPSEIVIGQCKVIATRHSHESQDLRVIDFNCTTSSVSSALANTKDSPVLIDFFEDTERYRKQANKALEKYKEENDDFASFRVDRIERVARVRGGEGTGYFVDFSVRNCPRHHFPRHPNVFGFCRADLFYDVEALDLESPKNLVINCEVFDPQEHENINGVPPHLGHPFHWGGHERSSTTKPPFKPHGSRDHHHPHKPHEHGPPPPPDERDHSHGPPLPQGPPPLLPMSCSSCQHATFGTNGAQRHSHNNNSSDLHPHKHHSHEQHPHGHHPHAHHPHEHDTHRQHPHGHHPHGHHPHGHHPHGHHPHGHHPHCHDFQDYGPCDPPPHNQGHCCHGHGPPPGHLRRRGPGKGPRPFHCRQIGSVYRLPPLRKGEVLPLPEANFPSFPLPHHKHPLKPDNQPFPQSVSESCPGKFKSGFPQVSMFFTHTFPK
Turning to B1, the binding result in assay [1] was “binds”.

B2: spectrin repeat containing nuclear envelope family member 3 (SYNE3) (protein, UniProt Q6ZMZ3 1-975)
chain: MTQQPQDDFDRSVEDAQAWMKAVQDQLQVNDNTQGPRAALEARLWETEKICQLEPEGRVRVDLVLRMAEALLACCPGDQKPGILARLKDIKAQWEETVTYMTHCHSRIEWVWLHWSEYLLARDEFYRWFQKMMVTLEPHIELQLGLKEKQWQLSHAQVLLHNVDNQAVLLDRLLEEAASLFNRIGDPSVDEDAQKRMKAEYDAVKAKAQKRVDLLEQVAREHEEYQAGVDEFQLWLKAVVEKVNGCLGRNCKLPITQRLSTLQDIAKDFPRGEESLETLEEQSAGVIRNTSPLGAEKITGELEEMRKVLEKLRALWEEEEERLRGLLRSRGAWEQQIKQLEAELSEFRMVLQRLAQEGLQPAAKAGTEDELVAHWRRYSATRAALASEEPRVDRLQAQLKELIVFPHNLKPLSDSVIATIQEYQSLKVKSARLRNAAAVELWQHFQRPLQDLQLWKALAQRLLEVTASLPDLPSLHTFLPQIEAALMESSRLKELLTMLQLKKDLLIGIFGQERATALLEQVAGSMRDRDLLHNSLLQRKSKLQSLLAQHKDFGAAFEPLQRKLLDLQVRVQAEKGLQRDLPGKQAQLSRLQGLQEEGLDLGAQMEAARPLVQENPNHQHKMDQLSSDFQALQRSLEDLVDRCRQSVQEHCTFSHQLLELRQWIVVTTQKLEAHRGEAGPGDAESQEAEFERLVAEFPEKEAQLSLVEAQGWLVMEKSSPEGAAVVQEELRELAESWRALRLLEESLLSLIRNWHLQRMEVDSGKKMVFTNNIPKSGFLINPMDPIPRHRRRANLLQEEEGSHEDFSQLLRNFGQWLQVENSKLVRIIAMRTSTAEDLRTRKSKLQELEARVPEGQHLFENLLRLGPARGTSDELEDLRYQWMLYKSKLKDSGHLLTQSSPGEPTGFQKTRRWRGLGSLFRRACCVALPLQLLLLLFLLLLFLLPIREEDRSCTLANNFARSFTLMLRYNGPPPT
B2: the binding entry in assay [1] was “binds”.
